The list shows a part of the results.
compound: COc1ccc(Cn2ccc3ccc(C(=O)NO)cc32)cc1; experiment: dose-dependent thermal stabilisation call (2D-TPP, DLPTP, 10% FDR) (binary (1 = stabilised)); higher = stabilised by the compound; conditions: system: HL-60 intact cells; concentration range 0.04-10 µM

Chains of the proteins cited; added tags and fusions are not shown. Lines headed by an entry give the natural chain unless they say otherwise; changes in a name come on top.
UniProt Q9UKW4: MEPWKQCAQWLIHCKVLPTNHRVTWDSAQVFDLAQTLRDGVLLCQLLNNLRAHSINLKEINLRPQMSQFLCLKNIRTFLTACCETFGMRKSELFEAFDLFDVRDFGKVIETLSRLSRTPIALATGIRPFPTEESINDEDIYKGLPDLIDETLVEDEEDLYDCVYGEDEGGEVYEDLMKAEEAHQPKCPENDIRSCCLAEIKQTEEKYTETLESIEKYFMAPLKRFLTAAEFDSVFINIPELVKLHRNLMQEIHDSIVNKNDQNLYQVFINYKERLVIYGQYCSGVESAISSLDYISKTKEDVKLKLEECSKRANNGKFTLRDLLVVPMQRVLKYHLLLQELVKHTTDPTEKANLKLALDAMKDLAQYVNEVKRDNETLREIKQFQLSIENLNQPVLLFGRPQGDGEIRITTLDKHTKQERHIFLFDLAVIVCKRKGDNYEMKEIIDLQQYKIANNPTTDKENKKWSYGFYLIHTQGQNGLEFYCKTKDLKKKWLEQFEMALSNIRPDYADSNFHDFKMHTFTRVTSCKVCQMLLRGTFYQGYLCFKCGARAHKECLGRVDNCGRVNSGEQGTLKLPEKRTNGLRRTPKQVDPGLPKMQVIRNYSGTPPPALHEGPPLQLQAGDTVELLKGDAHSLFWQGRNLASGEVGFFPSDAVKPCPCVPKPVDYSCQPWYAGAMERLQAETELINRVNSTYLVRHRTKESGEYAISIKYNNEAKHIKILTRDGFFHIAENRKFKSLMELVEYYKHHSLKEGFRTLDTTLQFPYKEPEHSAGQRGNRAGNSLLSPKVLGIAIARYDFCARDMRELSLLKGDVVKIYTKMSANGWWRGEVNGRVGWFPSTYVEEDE
UniProt Q8NBZ7: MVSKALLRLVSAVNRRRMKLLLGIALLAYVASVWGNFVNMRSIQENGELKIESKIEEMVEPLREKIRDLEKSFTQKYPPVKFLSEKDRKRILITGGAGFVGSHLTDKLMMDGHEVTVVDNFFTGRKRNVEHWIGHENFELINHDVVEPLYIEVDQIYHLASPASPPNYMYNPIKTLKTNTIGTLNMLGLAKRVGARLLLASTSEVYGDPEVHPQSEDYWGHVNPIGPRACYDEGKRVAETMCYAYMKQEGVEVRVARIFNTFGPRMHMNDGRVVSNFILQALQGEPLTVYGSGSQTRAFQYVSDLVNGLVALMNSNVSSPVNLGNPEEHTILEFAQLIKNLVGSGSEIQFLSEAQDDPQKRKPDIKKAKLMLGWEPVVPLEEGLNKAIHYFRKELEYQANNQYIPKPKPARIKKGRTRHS
UniProt Q9UEU0: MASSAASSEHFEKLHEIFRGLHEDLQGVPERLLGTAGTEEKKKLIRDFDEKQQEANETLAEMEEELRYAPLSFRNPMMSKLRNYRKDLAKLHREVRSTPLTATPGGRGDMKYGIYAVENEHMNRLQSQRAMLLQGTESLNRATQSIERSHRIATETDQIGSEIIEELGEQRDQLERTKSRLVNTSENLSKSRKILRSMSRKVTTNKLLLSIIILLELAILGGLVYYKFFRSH
UniProt Q96AX1: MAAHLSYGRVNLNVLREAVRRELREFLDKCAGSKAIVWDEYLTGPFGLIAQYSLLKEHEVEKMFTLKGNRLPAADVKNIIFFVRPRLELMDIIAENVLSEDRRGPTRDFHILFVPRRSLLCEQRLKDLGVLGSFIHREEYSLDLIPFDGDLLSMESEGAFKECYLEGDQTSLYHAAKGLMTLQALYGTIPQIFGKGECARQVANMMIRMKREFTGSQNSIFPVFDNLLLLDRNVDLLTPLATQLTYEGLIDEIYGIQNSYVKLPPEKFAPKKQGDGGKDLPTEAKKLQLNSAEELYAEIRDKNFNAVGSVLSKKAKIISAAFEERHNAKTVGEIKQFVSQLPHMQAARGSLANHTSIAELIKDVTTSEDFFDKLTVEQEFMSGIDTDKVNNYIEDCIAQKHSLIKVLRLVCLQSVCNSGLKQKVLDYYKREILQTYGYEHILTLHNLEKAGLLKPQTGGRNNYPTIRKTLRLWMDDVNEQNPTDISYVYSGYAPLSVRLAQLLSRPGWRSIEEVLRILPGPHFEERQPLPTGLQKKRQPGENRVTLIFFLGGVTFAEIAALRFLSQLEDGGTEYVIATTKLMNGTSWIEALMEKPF
UniProt O75362: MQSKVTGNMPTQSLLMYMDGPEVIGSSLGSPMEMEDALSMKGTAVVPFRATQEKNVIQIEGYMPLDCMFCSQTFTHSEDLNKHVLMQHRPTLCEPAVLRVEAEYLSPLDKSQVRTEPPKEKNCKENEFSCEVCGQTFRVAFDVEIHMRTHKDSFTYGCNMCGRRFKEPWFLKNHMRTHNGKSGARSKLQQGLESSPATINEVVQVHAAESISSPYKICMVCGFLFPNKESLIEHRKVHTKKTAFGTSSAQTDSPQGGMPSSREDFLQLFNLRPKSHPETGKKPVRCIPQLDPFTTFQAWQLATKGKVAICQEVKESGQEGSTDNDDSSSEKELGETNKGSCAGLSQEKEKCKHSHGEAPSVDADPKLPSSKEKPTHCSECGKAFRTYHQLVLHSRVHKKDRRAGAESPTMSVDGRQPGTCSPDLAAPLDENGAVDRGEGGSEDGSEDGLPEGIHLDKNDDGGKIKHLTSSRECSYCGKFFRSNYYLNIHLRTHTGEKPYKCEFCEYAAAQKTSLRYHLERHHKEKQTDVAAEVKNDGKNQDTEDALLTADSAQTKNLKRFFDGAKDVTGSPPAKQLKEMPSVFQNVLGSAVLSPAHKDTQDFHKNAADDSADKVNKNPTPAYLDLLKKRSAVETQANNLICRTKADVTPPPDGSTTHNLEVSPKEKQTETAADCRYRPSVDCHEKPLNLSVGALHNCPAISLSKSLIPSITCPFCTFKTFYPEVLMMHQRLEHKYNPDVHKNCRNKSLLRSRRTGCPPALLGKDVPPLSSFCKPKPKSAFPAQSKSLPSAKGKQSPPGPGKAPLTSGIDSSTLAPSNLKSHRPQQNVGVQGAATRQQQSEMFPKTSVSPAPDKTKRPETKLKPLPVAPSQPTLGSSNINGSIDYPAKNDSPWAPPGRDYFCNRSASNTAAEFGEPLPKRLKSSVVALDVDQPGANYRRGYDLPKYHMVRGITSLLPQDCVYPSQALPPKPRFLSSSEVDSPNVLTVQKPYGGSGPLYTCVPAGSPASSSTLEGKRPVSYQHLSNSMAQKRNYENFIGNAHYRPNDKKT
UniProt Q9BV38: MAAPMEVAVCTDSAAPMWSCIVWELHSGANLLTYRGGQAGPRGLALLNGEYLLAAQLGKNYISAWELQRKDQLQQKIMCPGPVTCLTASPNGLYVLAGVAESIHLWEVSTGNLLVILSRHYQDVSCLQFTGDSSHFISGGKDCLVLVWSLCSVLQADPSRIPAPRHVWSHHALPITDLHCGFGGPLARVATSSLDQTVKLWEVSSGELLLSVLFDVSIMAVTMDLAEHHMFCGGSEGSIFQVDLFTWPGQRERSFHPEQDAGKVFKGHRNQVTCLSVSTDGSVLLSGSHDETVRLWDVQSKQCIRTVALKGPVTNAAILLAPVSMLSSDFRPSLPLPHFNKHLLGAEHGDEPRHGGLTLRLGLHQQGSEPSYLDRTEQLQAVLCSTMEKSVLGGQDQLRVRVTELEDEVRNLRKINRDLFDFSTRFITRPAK
UniProt Q8TED0: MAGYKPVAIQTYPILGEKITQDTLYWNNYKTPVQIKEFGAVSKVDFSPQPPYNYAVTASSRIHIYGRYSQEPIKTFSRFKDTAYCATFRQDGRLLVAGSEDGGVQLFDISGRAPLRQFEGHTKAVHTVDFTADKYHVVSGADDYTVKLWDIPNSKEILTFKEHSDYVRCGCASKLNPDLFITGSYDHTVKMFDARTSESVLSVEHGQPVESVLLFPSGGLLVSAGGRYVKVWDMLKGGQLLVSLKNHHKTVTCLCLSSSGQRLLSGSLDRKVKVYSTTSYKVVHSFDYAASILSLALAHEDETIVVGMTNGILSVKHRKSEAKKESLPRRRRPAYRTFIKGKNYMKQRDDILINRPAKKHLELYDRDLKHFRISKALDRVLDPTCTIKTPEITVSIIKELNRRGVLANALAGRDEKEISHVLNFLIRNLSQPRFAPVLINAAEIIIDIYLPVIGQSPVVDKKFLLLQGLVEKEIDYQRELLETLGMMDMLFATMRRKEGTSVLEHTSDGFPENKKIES
UniProt P18206: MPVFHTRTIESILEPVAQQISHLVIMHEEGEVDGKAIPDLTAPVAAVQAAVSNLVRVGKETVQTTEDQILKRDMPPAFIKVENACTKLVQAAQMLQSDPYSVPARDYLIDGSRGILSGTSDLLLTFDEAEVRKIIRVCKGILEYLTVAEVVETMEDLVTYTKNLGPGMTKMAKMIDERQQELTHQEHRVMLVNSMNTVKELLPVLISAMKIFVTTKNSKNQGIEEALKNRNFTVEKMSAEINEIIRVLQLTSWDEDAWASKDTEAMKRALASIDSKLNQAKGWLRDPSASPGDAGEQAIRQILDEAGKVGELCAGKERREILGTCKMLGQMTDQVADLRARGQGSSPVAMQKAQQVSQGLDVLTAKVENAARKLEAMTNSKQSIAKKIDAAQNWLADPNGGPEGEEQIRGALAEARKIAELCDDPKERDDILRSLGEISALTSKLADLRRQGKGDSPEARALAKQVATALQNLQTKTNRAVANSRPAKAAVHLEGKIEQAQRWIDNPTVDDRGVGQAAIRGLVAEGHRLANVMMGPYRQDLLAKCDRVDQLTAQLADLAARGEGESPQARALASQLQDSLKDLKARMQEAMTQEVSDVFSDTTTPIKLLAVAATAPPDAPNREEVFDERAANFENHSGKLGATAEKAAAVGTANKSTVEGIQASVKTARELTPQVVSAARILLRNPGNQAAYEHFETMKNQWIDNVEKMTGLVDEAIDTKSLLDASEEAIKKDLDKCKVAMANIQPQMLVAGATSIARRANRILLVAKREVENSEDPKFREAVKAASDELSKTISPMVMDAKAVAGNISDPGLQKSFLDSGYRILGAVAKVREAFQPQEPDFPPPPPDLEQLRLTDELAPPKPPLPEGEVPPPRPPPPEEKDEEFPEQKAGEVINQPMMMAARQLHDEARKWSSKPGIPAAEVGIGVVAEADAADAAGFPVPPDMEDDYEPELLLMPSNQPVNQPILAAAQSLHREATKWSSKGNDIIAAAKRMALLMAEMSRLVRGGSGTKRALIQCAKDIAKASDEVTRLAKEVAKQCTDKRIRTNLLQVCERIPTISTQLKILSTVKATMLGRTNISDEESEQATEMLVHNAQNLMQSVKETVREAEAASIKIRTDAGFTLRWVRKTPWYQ
UniProt Q9BV40: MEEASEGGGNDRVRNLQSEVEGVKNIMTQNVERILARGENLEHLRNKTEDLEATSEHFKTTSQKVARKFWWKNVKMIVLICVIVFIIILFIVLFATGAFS
UniProt O00308: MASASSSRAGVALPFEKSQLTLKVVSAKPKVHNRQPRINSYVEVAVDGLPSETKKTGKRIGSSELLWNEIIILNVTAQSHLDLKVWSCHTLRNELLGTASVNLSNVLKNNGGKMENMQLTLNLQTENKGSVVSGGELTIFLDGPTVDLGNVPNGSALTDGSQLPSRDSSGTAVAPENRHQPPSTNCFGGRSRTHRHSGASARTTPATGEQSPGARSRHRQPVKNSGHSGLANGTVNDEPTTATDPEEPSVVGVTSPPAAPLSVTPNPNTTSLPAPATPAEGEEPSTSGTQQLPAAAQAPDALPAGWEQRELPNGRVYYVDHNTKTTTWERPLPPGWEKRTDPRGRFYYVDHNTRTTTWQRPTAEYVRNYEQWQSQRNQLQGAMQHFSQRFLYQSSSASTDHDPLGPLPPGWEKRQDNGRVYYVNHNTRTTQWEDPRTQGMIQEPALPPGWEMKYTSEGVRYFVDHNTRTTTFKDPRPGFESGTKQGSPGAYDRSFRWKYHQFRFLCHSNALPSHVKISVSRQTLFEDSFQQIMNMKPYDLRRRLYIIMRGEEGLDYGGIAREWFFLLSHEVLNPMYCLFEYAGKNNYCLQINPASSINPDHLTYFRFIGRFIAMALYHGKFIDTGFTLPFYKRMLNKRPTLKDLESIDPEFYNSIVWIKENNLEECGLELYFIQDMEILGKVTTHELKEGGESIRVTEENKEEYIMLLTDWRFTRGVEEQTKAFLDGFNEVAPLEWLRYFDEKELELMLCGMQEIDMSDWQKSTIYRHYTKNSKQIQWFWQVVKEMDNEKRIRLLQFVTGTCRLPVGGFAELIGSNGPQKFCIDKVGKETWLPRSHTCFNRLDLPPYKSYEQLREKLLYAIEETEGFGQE
UniProt O43709: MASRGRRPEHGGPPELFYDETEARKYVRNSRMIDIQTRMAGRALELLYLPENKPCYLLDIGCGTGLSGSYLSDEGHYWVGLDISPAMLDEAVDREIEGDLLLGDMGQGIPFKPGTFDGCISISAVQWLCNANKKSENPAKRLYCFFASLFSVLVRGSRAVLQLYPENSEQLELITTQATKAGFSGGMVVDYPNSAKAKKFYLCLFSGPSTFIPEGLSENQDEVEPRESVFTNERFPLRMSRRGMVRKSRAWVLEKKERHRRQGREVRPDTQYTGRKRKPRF

Row | Target | dose-dependent thermal stabilisation call
1 | VPS41 (UniProt P49754) | inactive: 0
2 | WDFY3 (UniProt Q8IZQ1) | inactive: 0
3 | XRCC1 (UniProt P18887) | inactive: 0
4 | VAV3 (UniProt Q9UKW4) | inactive: 0
5 | VPS26B (UniProt Q4G0F5) | inactive: 0
6 | UXS1 (UniProt Q8NBZ7) | inactive: 0
7 | WDR5 (UniProt P61964) | inactive: 0
8 | VTI1B (UniProt Q9UEU0) | inactive: 0
9 | ZC3H14 (UniProt Q6PJT7) | inactive: 0
10 | XYLT2 (UniProt Q9H1B5) | inactive: 0
11 | ZFC3H1 (UniProt O60293) | inactive: 0
12 | VPS33A (UniProt Q96AX1) | inactive: 0
13 | XAB2 (UniProt Q9HCS7) | inactive: 0
14 | ZC3H15 (UniProt Q8WU90) | inactive: 0
15 | WDR45L (UniProt Q5MNZ6) | inactive: 0
16 | VPS11 (UniProt Q9H270) | inactive: 0
17 | VPS29 (UniProt Q9UBQ0) | inactive: 0
18 | ZNF217 (UniProt O75362) | inactive: 0
19 | XPC (UniProt Q01831) | inactive: 0

Quoted at random: two entries already listed
Row | Target | dose-dependent thermal stabilisation call
3 | XRCC1 (UniProt P18887) | inactive: 0
7 | WDR5 (UniProt P61964) | inactive: 0

The listing continues:

Row | Target | dose-dependent thermal stabilisation call
20 | ZC3H10 (UniProt Q96K80) | inactive: 0
21 | WDR18 (UniProt Q9BV38) | inactive: 0
22 | ZFP91 (UniProt Q96JP5) | inactive: 0
23 | WDR75 (UniProt Q8IWA0) | inactive: 0
24 | UTP15 (UniProt Q8TED0) | inactive: 0
25 | ZFPL1 (UniProt O95159) | inactive: 0
26 | WRB (UniProt O00258) | inactive: 0
27 | VCL (UniProt P18206) | inactive: 0
28 | WASH1 (UniProt A8K0Z3) | inactive: 0
29 | XRCC5 (UniProt P13010) | inactive: 0
30 | ZMYM2 (UniProt Q9UBW7) | inactive: 0
31 | XRCC2 (UniProt O43543) | inactive: 0
32 | XPNPEP1 (UniProt Q9NQW7) | inactive: 0
33 | VAMP8 (UniProt Q9BV40) | inactive: 0
34 | WASF2 (UniProt Q9Y6W5) | inactive: 0
35 | WWC2 (UniProt Q6AWC2) | inactive: 0
36 | WWP2 (UniProt O00308) | inactive: 0
37 | WBSCR22 (UniProt O43709) | inactive: 0

— the supplement of paper PMC7666118
